Measurements reported in article PMC10612104.

Biological target: HIV-1 49.5 Env (NL43 Env carrying the V3 region of the Ba-L isolate) (HIV-1 NL43 | HIV-1 Ba-L)
Test: co-IP; filtered cell-free supernatants of co-transfected HEK293T cells (molecular clone and hMRC1-3xHA) pelleted by ultracentrifugation, suspended in 1 mL CoIP lysis buffer; precipitated with Env-specific antiserum; blots for Env, HA, tubulin, HIV-Ig

B1: C-terminally HA-tagged hMRC1 (hMRC1-3xHA) (receptor, UniProt P22897 1-1456)
chain: MRLPLLLVFASVIPGAVLLLDTRQFLIYNEDHKRCVDAVSPSAVQTAACNQDAESQKFRWVSESQIMSVAFKLCLGVPSKTDWVAITLYACDSKSEFQKWECKNDTLLGIKGEDLFFNYGNRQEKNIMLYKGSGLWSRWKIYGTTDNLCSRGYEAMYTLLGNANGATCAFPFKFENKWYADCTSAGRSDGWLWCGTTTDYDTDKLFGYCPLKFEGSESLWNKDPLTSVSYQINSKSALTWHQARKSCQQQNAELLSITEIHEQTYLTGLTSSLTSGLWIGLNSLSFNSGWQWSDRSPFRYLNWLPGSPSAEPGKSCVSLNPGKNAKWENLECVQKLGYICKKGNTTLNSFVIPSESDVPTHCPSQWWPYAGHCYKIHRDEKKIQRDALTTCRKEGGDLTSIHTIEELDFIISQLGYEPNDELWIGLNDIKIQMYFEWSDGTPVTFTKWLRGEPSHENNRQEDCVVMKGKDGYWADRGCEWPLGYICKMKSRSQGPEIVEVEKGCRKGWKKHHFYCYMIGHTLSTFAEANQTCNNENAYLTTIEDRYEQAFLTSFVGLRPEKYFWTGLSDIQTKGTFQWTIEEEVRFTHWNSDMPGRKPGCVAMRTGIAGGLWDVLKCDEKAKFVCKHWAEGVTHPPKPTTTPEPKCPEDWGASSRTSLCFKLYAKGKHEKKTWFESRDFCRALGGDLASINNKEEQQTIWRLITASGSYHKLFWLGLTYGSPSEGFTWSDGSPVSYENWAYGEPNNYQNVEYCGELKGDPTMSWNDINCEHLNNWICQIQKGQTPKPEPTPAPQDNPPVTEDGWVIYKDYQYYFSKEKETMDNARAFCKRNFGDLVSIQSESEKKFLWKYVNRNDAQSAYFIGLLISLDKKFAWMDGSKVDYVSWATGEPNFANEDENCVTMYSNSGFWNDINCGYPNAFICQRHNSSINATTVMPTMPSVPSGCKEGWNFYSNKCFKIFGFMEEERKNWQEARKACIGFGGNLVSIQNEKEQAFLTYHMKDSTFSAWTGLNDVNSEHTFLWTDGRGVHYTNWGKGYPGGRRSSLSYEDADCVVIIGGASNEAGKWMDDTCDSKRGYICQTRSDPSLTNPPATIQTDGFVKYGKSSYSLMRQKFQWHEAETYCKLHNSLIASILDPYSNAFAWLQMETSNERVWIALNSNLTDNQYTWTDKWRVRYTNWAADEPKLKSACVYLDLDGYWKTAHCNESFYFLCKRSDEIPATEPPQLPGRCPESDHTAWIPFHGHCYYIESSYTRNWGQASLECLRMGSSLVSIESAAESSFLSYRVEPLKSKTNFWIGLFRNVEGTWLWINNSPVSFVNWNTGDPSGERNDCVALHASSGFWSNIHCSSYKGYICKRPKIIDAKPTHELLTTKADTRKMDPSKPSSNVAGVVIIVILLILTGAGLAAYFFYKKRRVHLPQEGAFENTLYFNSQSSPGTSDMKDLVGNIEQNEHSVI
binding: binds weakly

These are yes or no findings as the source states them, for the method shown. Binding seen in cells or lysates may run through a third protein. A result given as binding can be weak or reduced; the word gives no strength. Where a sequence is shown, tags or fusion partners need not be part of it.
